Laboratory results: publication PMC9913288, “Suppression of Cancer Cell Stemness and Drug Resistance via MYC Destabilization by Deubiquitinase USP45 Inhibition with a Natural Small Molecule” (Cancers, 2023)
Changes are numbered by the printed parent chain. Results are given in words; binding and its absence hold for the method and conditions named. For part of these data: Binding seen in cells or lysates may run through a third protein. Some results given as binding are weak or reduced against the parent protein; the word gives no strength. For part of these data: Sequences can lack the tags named with a protein. Each block holds one molecule with its values, some of them ahead of it.

Protein sequences, listed by entry. Tags and fused reporters are not part of them.
UniProt P01106: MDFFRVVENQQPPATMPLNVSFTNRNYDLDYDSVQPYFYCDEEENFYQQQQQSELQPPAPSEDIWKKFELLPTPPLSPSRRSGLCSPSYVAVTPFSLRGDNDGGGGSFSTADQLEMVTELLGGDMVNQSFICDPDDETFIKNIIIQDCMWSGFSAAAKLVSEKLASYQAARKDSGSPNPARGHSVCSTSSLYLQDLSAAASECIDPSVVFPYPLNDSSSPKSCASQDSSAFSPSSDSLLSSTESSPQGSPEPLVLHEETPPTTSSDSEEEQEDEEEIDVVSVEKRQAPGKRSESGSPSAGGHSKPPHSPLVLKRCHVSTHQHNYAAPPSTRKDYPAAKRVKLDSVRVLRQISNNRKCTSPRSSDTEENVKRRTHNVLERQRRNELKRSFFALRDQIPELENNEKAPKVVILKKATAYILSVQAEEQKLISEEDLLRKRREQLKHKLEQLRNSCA

Assays:
USP45-His = molecular target: T1, USP45-His (UniProt Q70EL2); assay: pull-down; USP45 purified from E. coli and MYC purified from HEK293T cells incubated together, followed by pulling down; bait not stated; both purified
T1 sequence: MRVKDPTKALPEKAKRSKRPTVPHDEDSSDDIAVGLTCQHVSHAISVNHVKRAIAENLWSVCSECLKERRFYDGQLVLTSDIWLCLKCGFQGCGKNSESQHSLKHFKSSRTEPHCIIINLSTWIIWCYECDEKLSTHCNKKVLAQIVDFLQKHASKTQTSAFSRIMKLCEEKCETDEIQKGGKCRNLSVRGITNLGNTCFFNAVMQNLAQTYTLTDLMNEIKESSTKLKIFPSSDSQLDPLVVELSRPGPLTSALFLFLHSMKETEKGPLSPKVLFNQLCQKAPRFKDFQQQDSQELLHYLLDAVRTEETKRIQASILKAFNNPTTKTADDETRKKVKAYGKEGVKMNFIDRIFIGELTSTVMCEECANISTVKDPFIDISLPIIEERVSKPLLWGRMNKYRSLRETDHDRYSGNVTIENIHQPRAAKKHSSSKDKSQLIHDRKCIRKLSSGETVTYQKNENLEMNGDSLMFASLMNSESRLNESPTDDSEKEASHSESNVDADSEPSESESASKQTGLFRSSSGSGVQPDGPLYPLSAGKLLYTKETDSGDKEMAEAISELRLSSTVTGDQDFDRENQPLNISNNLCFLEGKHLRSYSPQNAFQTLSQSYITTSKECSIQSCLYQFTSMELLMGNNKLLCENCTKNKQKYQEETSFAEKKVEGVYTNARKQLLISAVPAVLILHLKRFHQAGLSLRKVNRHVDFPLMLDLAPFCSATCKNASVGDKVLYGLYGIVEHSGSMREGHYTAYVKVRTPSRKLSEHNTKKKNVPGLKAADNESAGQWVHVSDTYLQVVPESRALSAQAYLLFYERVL

[1] = molecular target: T2, C-terminal domain of USP45 (190-814 domain), USP45-Flag deletion mutant (UniProt Q70EL2); assay: co-IP; HEK293T cells transfected with MYC-HA and USP45-Flag (WT or deletion mutants); IP with anti-Flag (also anti-HA in Figure 2A); plvx-puro vector as negative control
T2 sequence: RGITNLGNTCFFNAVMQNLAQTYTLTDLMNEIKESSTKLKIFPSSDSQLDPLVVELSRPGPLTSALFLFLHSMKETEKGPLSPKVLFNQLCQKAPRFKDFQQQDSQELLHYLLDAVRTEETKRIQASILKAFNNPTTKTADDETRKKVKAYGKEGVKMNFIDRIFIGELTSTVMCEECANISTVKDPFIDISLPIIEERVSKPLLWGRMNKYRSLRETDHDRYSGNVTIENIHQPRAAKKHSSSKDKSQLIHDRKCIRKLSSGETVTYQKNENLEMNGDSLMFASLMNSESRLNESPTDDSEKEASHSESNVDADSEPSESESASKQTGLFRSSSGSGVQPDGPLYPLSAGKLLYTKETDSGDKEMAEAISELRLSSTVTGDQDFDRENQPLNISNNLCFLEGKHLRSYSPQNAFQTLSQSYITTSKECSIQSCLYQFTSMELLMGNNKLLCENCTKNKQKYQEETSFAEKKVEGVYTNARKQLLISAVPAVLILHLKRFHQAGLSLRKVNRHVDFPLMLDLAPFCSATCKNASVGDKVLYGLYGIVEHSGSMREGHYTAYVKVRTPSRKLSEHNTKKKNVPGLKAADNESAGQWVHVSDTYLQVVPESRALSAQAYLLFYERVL

USP45-Flag [2] = molecular target: T3, USP45-Flag (UniProt Q70EL2); assay: as above
T3 sequence: T1 sequence

USP45-Flag [3] = molecular target: T3, USP45-Flag; assay: co-IP; HEK293T cells transfected with USP45-Flag (WT or C199A); IP with anti-Flag, control IgG or plvx-puro vector as control; endogenous MYC detected
USP45-Flag C199A = molecular target: T4, USP45-Flag C199A (UniProt Q70EL2); assay: as above
T4 sequence: T1 sequence with C199A

[4] = molecular target: endogenous MYC (human (endogenous in HEK293T)) (UniProt P01106); assay: co-IP; HEK293T cell lysate, endogenous proteins; IP with anti-MYC and control IgG

binding (USP45-His): binds
Molecule: MYC purified from HEK293T cells (from UniProt P01106 1-454)

binding [1]: binds
binding (USP45-Flag [2]): binds
Molecule: MYC-HA (from UniProt P01106 1-454)

binding (USP45-Flag [3]): binds
binding (USP45-Flag C199A): binds
Molecule: endogenous MYC (from UniProt P01106 1-454)

binding [4]: binds
B1: endogenous USP45 (enzyme, UniProt Q70EL2 1-814)
chain: T1 sequence
